This is an account of results in patent US20090155228.

The data set concerns PPARgamma:RXRalpha heterodimer (cells). Description: activity in cells. The following applies: COS1 reporter; further elevated by 1 uM rosiglitazone; protein in cells.

Regarding “GTGGTGGAGGGCAGAGGGCAATGGCTTGGAAGGCTGTGAGTCACTTAACCTTTAACCTTGTGCAAATCAGTCTCCTTTGCACTGGTGACTTATCTGTAAAATGAGGAAAGTCATCTAACATCTGACCTAATGAGGAAGGTCCTTTTTCTC (double strand) [ABCG2 enhancer 150 bp (-3946/-3796)]”, the “activity on this sequence” value was “active”.
